From patent publication US20240117067A1
No constants are given. Whether binding was seen depends on the method and setting. Some binding calls cover weakened binding; strength is not graded here.

What was measured:
[1] = target: T1, human EpCAM expressed on cells (Colo205 cells, 293 cells, CHO cells) (human) (UniProt P16422); experiment: screening of hybridoma clones on CHO cells expressing human EpCAM
T1 sequence (looked up): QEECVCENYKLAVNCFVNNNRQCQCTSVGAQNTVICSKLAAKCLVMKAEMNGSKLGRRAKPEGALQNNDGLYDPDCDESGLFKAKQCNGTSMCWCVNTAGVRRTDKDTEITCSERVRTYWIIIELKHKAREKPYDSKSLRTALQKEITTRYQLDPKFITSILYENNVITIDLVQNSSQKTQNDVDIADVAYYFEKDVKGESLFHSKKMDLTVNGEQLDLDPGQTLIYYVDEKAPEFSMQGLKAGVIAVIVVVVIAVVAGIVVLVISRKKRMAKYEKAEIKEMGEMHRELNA

[2] = target: T2, recombinant human EpCAM extracellular domain (ECD) (human) (UniProt P16422); experiment: screening of hybridoma clones
T2 sequence (looked up): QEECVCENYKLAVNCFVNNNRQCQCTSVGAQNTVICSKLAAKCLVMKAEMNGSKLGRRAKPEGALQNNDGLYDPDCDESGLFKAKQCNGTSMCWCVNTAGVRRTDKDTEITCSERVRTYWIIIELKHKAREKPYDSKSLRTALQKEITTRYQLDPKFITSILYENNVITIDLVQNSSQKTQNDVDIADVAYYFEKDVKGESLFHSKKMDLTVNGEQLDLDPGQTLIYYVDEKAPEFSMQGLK

binding [1]: binds
binding [2]: binds
B1: anti-EpCAM antibody expressed by hybridoma clone 12C10F12 (antibody, V domains shown)
VH: QVQLQQSGAELAKPGASVKVSCKASGYTFTSYWMHWVKQRPGQGLEWIGYIRPSTGYTEYNQKFKDKATLTADKSSSTAYMQLSSLTFEDSAVYYCGRGDNWVGFANWGQGTLVTVSA
VL: QIVLTQSPAIMSASLGEEIALTCSASSSISYMHWYQQKSGTSPKLLIYSTSNLASGVPSRFSGSGSGTFYSLTISSVEAEDAADYFCHQWSTYHTFGSGTKLEIK
